The target of the experiment is T1, human placenta growth factor (PLGF) (human) (UniProt P49763).
T1 sequence: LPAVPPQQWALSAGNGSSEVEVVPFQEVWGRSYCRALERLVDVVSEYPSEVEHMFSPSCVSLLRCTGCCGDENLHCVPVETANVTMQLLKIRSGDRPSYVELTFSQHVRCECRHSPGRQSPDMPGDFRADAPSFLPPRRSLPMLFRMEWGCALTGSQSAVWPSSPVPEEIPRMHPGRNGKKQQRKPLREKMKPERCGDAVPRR
Nature of the experiment: hybrid sandwich ELISA on patient plasma (VEGF antibodies capture, PLGF antibodies detect). A general note: An ELISA detects its analyte on a solid surface through an enzyme-linked reagent.

Sequences of proteins named here, by UniProt entry; tags and fusion partners are left off. A change or cut given only in a name is not applied to a line headed by its entry.
UniProt P15692: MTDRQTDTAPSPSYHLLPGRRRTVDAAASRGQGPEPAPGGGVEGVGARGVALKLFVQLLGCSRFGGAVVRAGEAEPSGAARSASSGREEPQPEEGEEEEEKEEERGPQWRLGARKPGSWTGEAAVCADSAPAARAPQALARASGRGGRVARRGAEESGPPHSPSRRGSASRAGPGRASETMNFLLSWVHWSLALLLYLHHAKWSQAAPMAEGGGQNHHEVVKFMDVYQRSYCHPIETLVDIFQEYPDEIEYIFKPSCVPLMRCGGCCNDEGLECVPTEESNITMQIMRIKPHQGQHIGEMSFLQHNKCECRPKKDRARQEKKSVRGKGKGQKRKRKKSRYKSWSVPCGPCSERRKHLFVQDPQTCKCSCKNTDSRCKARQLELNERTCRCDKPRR

Results are given in words; binding and its absence hold for the method and conditions named. Some results given as binding are weak or reduced against the parent protein; the word gives no strength.

“human vascular endothelial growth factor (VEGF) (from UniProt P15692 181-395) (ligand)”: the binding result is reported as “binds”.
